Measured data: PubChem BioAssay AID1259424 (University of Nebraska Medical Center, 2018)
The whole screen tested about 14,000 reagents; below is an unselected part. 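Higher correlation or smaller distance means closer resemblance to KSR1 loss; control wells, including KSR1 knockdowns, recur on many plates.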 A reagent listed more than once was tested more than once; the source does not tell the runs apart. Further read-outs or replicates are left out here. The record does not give: the time to read-out.

Test: 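Rank knockdowns across the genome by resemblance to the KSR1 depletion profile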 (primary screen)
Cells: human HCT116 colon cancer cells
Reagent: siRNA pool against human genes, 50 nM
Detection: 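Six signature mRNAs by branched-DNA multiplex assay, scaled to two housekeeping genes and non-targeting median, log2; matched to mean KSR1 knockdown profile by Pearson correlation and euclidean distance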
Direction: mean correlation with KSR1 profile and KSR1 correlation: higher = expression change more like KSR1 knockdown; mean distance from KSR1 profile: higher = expression change less like KSR1 knockdown

no.	gene symbol	mean correlation with KSR1 profile	mean distance from KSR1 profile	KSR1 correlation, replicate 1	KSR1 correlation, replicate 2
1	EHD1 (EH domain containing 1)	-0.69	3.73	-0.569	-0.725
2	STAG1 (STAG1 cohesin complex component)	-0.135	1.71	-0.136	-0.184
3	GPR119 (G protein-coupled receptor 119)	0.523	2.18	0.504	0.435
4	GPR119 (G protein-coupled receptor 119)	0.432	2.4	0.382	0.573
5	TGFA (transforming growth factor alpha)	-0.606	1.86	-0.592	-0.371
6	DIRAS3 (DIRAS family GTPase 3)	0.262	1.32	0.188	0.465
7	UNK (unk zinc finger)	-0.0791	2.49	-0.116	-0.263
8	ILRUN	-0.467	2.02	-0.498	-0.374
9	FAM222B (family with sequence similarity 222 member B)	-0.292	1.94	-0.239	-0.313
10	PSKH1 (protein serine kinase H1)	0.336	2.38	0.531	0.399
11	PRDX6 (peroxiredoxin 6)	0.458	1.02	0.462	0.683
12	TBP (TATA-box binding protein)	-0.153	2.38	0.107	-0.138
13	NLGN3 (neuroligin 3)	0.263	1.12	0.212	0.465
14	HACD3 (3-hydroxyacyl-CoA dehydratase 3)	0.11	2.68	0.0337	0.289
15	ZC3H15 (zinc finger CCCH-type containing 15)	-0.29	2.52	-0.505	-0.23
16	PWP1 (PWP1 homolog, endonuclein)	-0.758	2.98	-0.627	-0.789
17	ZBTB48 (zinc finger and BTB domain containing 48)	-0.353	2.31	-0.478	-0.449

The list goes on; the last 2 above are carried over.
no.	gene symbol	mean correlation with KSR1 profile	mean distance from KSR1 profile	KSR1 correlation, replicate 1	KSR1 correlation, replicate 2
16	PWP1 (PWP1 homolog, endonuclein)	-0.758	2.98	-0.627	-0.789
17	ZBTB48 (zinc finger and BTB domain containing 48)	-0.353	2.31	-0.478	-0.449
18	ZNF74 (zinc finger protein 74)	0.0452	2.02	0.0881	-0.189
19	HKDC1 (hexokinase domain containing 1)	0.801	1.34	0.457	0.903
20	ZNF446 (zinc finger protein 446)	-0.296	2.8	-0.38	-0.229
21	RIOX2 (ribosomal oxygenase 2)	0.762	0.914	0.613	0.909
22	GPS1 (G protein pathway suppressor 1)	-0.46	3	-0.387	-0.611
23	SH2B1 (SH2B adaptor protein 1)	-0.259	2.69	-0.086	-0.233
24	FCHO1 (FCH and mu domain containing endocytic adaptor 1)	0.155	1.15	0.147	-0.0361
25	YTHDC2 (YTH N6-methyladenosine RNA binding protein C2)	0.145	1.74	-0.172	0.24
26	PIAS1 (protein inhibitor of activated STAT 1)	0.00593	2.38	-0.209	-0.0257
27	INHA (inhibin subunit alpha)	-0.0114	2.37	0.0177	0.121
28	PXMP2 (peroxisomal membrane protein 2)	-0.433	2.13	-0.408	-0.542
29	TMEM185A (transmembrane protein 185A)	0.744	1.6	0.69	0.63
30	IKBKG	-0.225	2.38	-0.262	-0.169
31	PCDH17 (protocadherin 17)	0.979	1.59	0.939	0.55
32	U2AF2 (U2 small nuclear RNA auxiliary factor 2)	-0.244	2.95	-0.232	-0.0856
33	OTUD5 (OTU deubiquitinase 5)	-0.487	2.56	-0.224	-0.641
34	RAI1 (retinoic acid induced 1)	0.21	1.54	0.211	0.00907
35	RBAK (RB associated KRAB zinc finger)	-0.184	1.86	0.171	0.458
36	MEIS1 (Meis homeobox 1)	0.0456	2.02	-0.274	-0.194
37	GNG4 (G protein subunit gamma 4)	0.61	2.12	0.454	0.673
38	ZNF195 (zinc finger protein 195)	-0.233	1.44	-0.226	-0.265
39	KRT73 (keratin 73)	0.347	1.35	0.386	0.359
40	IQCE (IQ motif containing E)	-0.376	1.65	-0.265	-0.464
41	EFCAB7 (EF-hand calcium binding domain 7)	0.49	1.98	0.324	0.522
42	SLC7A4	0.336	1.12	-0.0405	0.328
43	ARFGAP2 (ARF GTPase activating protein 2)	0.826	1.71	0.802	0.829
44	ZDHHC11 (zDHHC palmitoyltransferase 11)	0.203	2.89	0.229	0.321
45	SPR (sepiapterin reductase)	-0.254	2.31	-0.158	-0.439
46	CCDC9 (coiled-coil domain containing 9)	-0.248	4.07	-0.338	-0.366
47	COL5A2 (collagen type V alpha 2 chain)	0.414	1.95	0.402	0.532
48	SIRT5 (sirtuin 5)	-0.537	3.26	-0.389	-0.5
49	PSMD10 (proteasome 26S subunit, non-ATPase 10)	-0.285	3	-0.0378	-0.486
50	ADM2 (adrenomedullin 2)	0.622	1.38	0.553	0.6
